In the DeepSol protein solubility set:

Experiment: soluble on expression in E. coli; label from the status in PepcDB or PDB records

Sequence	soluble on expression in E. coli
MTPEKHRARKRQAWLWEEDKNLRSGVRKYGEGNWSKILLHYKFNNRTSVMLKDRWRTMKKLKLISSDSED	soluble
PTGGGKTLASMAFALEHALKHDKKRIIVVIPYTSIIEQTAAVYREVFGDDAVLEHHSNLDPSRETPASRLATENWDAPIIVTTNVQFFESLFAARSSACRKLHNIVNSVVVLDEAQMLPTDFLQPIVSVIKMLSAHFRTSVVLCTATQP	not soluble
RKETYSSYIYKVLKQTHPDTGISQKSMSILNSFVNDIFERIATEASKLAAYNKKSTISAREIQTAVRLILPGELAKHAVSEGTRAVTKYSSSTQAQSSSARAGLQFPVGRIKRYLKRHATGRTRVGSKAAIYLTAVLEYLTAEVLELAGNAAKDLKVKRITPRHLQLAIRGDDELDSLIRATIASGGVLPHI	soluble
SAGSSIAMKTWELSNSMQEVQSIDEIYKYDKKQQQEILAAKPWTKDHHYFKYCKLSALALLKMVMHARSGGNLGVMGLMLGKVDGETMIIMDSFALPVEGTETRVNAQAAAYEYMAAYIENAKQVGRLENAIGWYHSHPGYGCWLSGIDVSTQMLNQQFQEPFVAVVIDPTRTISAGKVNLGAFRTYPKGYKPPDEGPSEYQTIPLNKIEDFGVHCKQYYALEVSYFKSSLDRKLLELLWNKYWVNTLSSSSLLTNADYTTGQVFDLSEKLEQAEAQLGRGSFMLGLDTHDRKSEDKLAKATRDSCKTTIEAIHGLMSQVIKDKLFNQVNTSAN	soluble
TDVAARGIDINDLTHVVNYDIPQNPESYVHRIGRTGRAGKQGYAVTFVEPSEFRKFKYIQKIAKTEIRKEEVPDVKDIIGAKKRKIVSGIKEVLESGKYNDCENMAADLLEDADPQEVLSAVLKYALKDELSESNYK	not soluble
